Cell number change and AC50 data for 37 molecules are collected here from PubChem BioAssay AID2685 (National Center for Advancing Translational Sciences (NCATS), 2010).

The AC50 is the midpoint of the concentration-response curve, whichever way the signal moves. A high value points to weaker potency.

This assay is described as follows: qHTS Assay for Lipid Storage Modulators in Drosophila S3 Cells.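 For Cell number change: cells counted by Cell Tracker Red CMTPX staining in the red channel.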 To be noted: BODIPY lipid droplet fluorescence, 18-24 h; for cell number change: measured here: cell count max response, cells fed with added oleic acid. The method, boiled down:
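Drosophila S3 cells loaded with oleic acid (400 uM, as added) and compounds at several concentrations; lipid droplets imaged by 488-nm laser-scanning cytometry, 500–530 nm intensity and object ratio to cell channel. Percent activity normalized to 20 uM Triacsin C.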
(In qHTS, concentration-response curves come from the screen itself.)

Setting [1] is: measured here: lipid fluorescence (Fed channel) AC50, cells fed with added oleic acid.
Where [2] appears, read: measured here: cell number channel AC50, cells fed with added oleic acid.

The list shows a part of the results. Shown are side measurements of this screen, not its main read-out; they come without a call. Most of these compounds were active or inconclusive in the main read-out, so they are no random draw. Potencies come from curve fits of mixed quality, noted in brackets.

As for `CCN1CCCC1CNS(=O)(=O)c1ccc(F)c(Cl)c1` (stereo not drawn), the cell number change turned out to be 16.8%. Also, the AC50 under setting [1] is 0.58 µM [rising, single point].
For `CCOC(=O)C1=C(CSc2nccn2C)NC(=O)NC1c1cc(C)ccc1C` (stereo not drawn), the cell number change was found to be 54.3%. Moreover, the AC50 under setting [2] was 4.61 µM [rising, full curve]. For the same molecule, the AC50 under setting [1] was 5.8 µM [rising, full curve].
Regarding `CCN(CC(=O)Nc1cc(S(=O)(=O)N2CCOCC2)ccc1Cl)Cc1ccccc1`, the cell number change is -23.4%. Besides, the AC50 under setting [1] is 4.61 µM [falling, partial curve].
`COc1ccc2c(c1)[C@H]1[C@H](CO2)[C@H](c2ccccc2)[C@]2(C)C(=O)N[C@H](C)C(=O)N12`: the cell number change was -3.05%. Besides, the AC50 under setting [1] was 25.9 µM [rising, single point].
Turning to `CC(C)C(c1nnnn1C1CCCC1)N(C)C1CCCCC1` (stereo not drawn), under setting [1], the AC50 is 29.1 µM [falling, single point].
In the case of `COc1ccc(CNCc2c(O)c(Cl)cc3c(C)c(C)c(=O)oc23)c(OC)c1`, the cell number change is -7.04%. Further, under setting [1], the AC50 is 20.6 µM [rising, single point].
Take `Cc1ccc(C2=NN(C(=O)c3ccccc3F)C(c3ccccc3F)C2)cc1` (stereo not drawn): the cell number change was 116%. The AC50 under setting [2] was 23.1 µM [rising, partial curve]. Moreover, under setting [1], the AC50 was 29.1 µM [rising, single point].
`COc1ccc([N+](=O)[O-])cc1N(CC(=O)N1CCCCC1)S(C)(=O)=O`: the cell number change is -27%. In addition, the AC50 under setting [1] was 23.1 µM [falling, partial curve, poor fit].
For `Cn1c(C(=O)N2CCCC(Nc3ccc(F)cc3)C2)cc2ccccc21` (stereo not drawn), under setting [1], the AC50 was 4.11 µM [rising, partial curve].
Consider `CN(C)CCCNC(=S)N1CCN(c2nc(-c3ccccc3)cs2)CC1`, for which the cell number change is -2.91%.
On the same count and under the same terms, as for `Cc1cccc(OCC(=O)NCCNC(=O)c2ccncc2)c1`, the figure is -11.4%.
As for `CCOC(=O)c1cc(C(C)C)sc1NC(=O)COC(=O)CCS(=O)(=O)c1ccccc1`, the cell number change was found to be 48.7%. Besides, the AC50 under setting [2] is 7.31 µM [rising, partial curve]. For the same molecule, the AC50 under setting [1] was 3.66 µM [rising, single point].
For `CCc1nnc(NC(=O)CC23CC4CC(CC(C4)C2)C3)s1`, the cell number change was -2.59%. Under setting [1], the AC50 was 0.461 µM [falling, single point].
As to `CCCN(C(=O)COC(=O)CCOc1ccccc1C)c1c(N)n(Cc2ccccc2)c(=O)[nH]c1=O`, the cell number change was -13%.
As for `CC1CN(C(=O)COC(=O)c2ccc(O)cc2)CC(C)O1` (stereo not drawn), the cell number change turned out to be 9.46%.
For the molecule `O=C1CC(c2ccc(F)cc2)Cc2nc(NCC3CCCO3)ncc21` (stereo not drawn), the cell number change was 4.73%. In addition, the AC50 under setting [1] was 18.4 µM [rising, single point].
Consider `FC(F)(F)c1ccccc1CN1CCCC(N2CCN(c3ccccc3)CC2)C1` (stereo not drawn), for which the cell number change was -13.2%. For the same molecule, the AC50 under setting [1] is 5.8 µM [rising, full curve].
For `Cc1c(C(=O)N2C[C@@H](C)O[C@@H](C)C2)oc2c(F)cccc12`, the cell number change was -13.1%. For the same molecule, the AC50 under setting [1] is 0.58 µM [falling, single point].
As for `O=c1[nH]c(SCc2cccc(F)c2)nc2c1CCCC2`, the AC50 by setting is: under setting [2], 0.103 µM [rising, full curve, poor fit]; under setting [1], 0.116 µM [rising, full curve, poor fit].
Consider `COc1ccccc1OCC(O)Cn1c(=N)n(CCN2CCCCC2)c2ccccc21` (stereo not drawn), for which the AC50 under setting [2] was 6.51 µM [rising, single point].
As for `CCOC(=O)N1CCC(NC(=O)CS(=O)Cc2nc(-c3ccc(Cl)cc3)oc2C)CC1` (stereo not drawn), the cell number change was -12.2%. Also, under setting [1], the AC50 is 18.4 µM [falling, partial curve, poor fit].
On to `COc1ccc(/C=N/Nc2ncc(C(F)(F)F)cc2Cl)cc1OC`, for which the cell number change worked out at 45.2%. For the same molecule, the AC50 under setting [2] was 4.11 µM [rising, full curve]. For the same molecule, the AC50 under setting [1] is 6.51 µM [rising, single point].
Consider `O=C(Nc1nnc(-c2cccs2)o1)c1ccc(S(=O)(=O)N2CCOCC2)cc1`, for which the cell number change turned out to be 0.104%. The AC50 under setting [2] is 2.06 µM [rising, single point]. Further, the AC50 under setting [1] is 1.64 µM [rising, partial curve].
On to `CCN(CC)S(=O)(=O)c1cccc(C(=O)Nc2ccc(C#N)cc2)c1`, for which the cell number change is -7.51%. Moreover, the AC50 under setting [1] is 0.0291 µM [rising, full curve, poor fit].
As for `Cc1nc(NC(=O)C2CCCCC2C(=O)O)sc1C` (stereo not drawn), the cell number change turned out to be 23.1%. Further, the AC50 under setting [1] was 0.082 µM [rising, full curve, poor fit].
In the case of `O=S(=O)(Nc1c(F)cccc1F)c1ccc(Cl)nc1`, the cell number change was -69%. Under setting [2], the AC50 was 29.1 µM [falling, single point]. Moreover, the AC50 under setting [1] was 25.9 µM [falling, partial curve].
For `Cc1nc(NS(=O)(=O)c2ccccc2)sc1C(C)(C)C`, the cell number change was 9.99%. The AC50 under setting [1] was 2.31 µM [rising, full curve, poor fit].
As to `Cc1cc(C(=O)N2CCOCC2)n(-c2ccccc2)n1`, the cell number change was found to be 33.7%. Further, the AC50 under setting [2] is 6.51 µM [rising, single point].
Regarding `COc1ccc(C(=O)CCNc2ccc(F)cc2)cc1`, the cell number change is 27.5%. For the same molecule, the AC50 under setting [2] was 1.84 µM [rising, full curve, poor fit]. Moreover, the AC50 under setting [1] was 2.59 µM [rising, partial curve, poor fit].
In the case of `COc1ccc(C(=O)N/C(=C\c2cccc3ccccc23)C(=O)N2CCN(C)CC2)cc1OC`, the cell number change turned out to be 2.49%.
As to `O=C(CCc1ccccc1)NCCc1nc2ccccc2[nH]1`, the cell number change came out at 82.2%. In addition, the AC50 under setting [2] is 14.6 µM [rising, partial curve, poor fit]. In addition, under setting [1], the AC50 was 29.1 µM [rising, single point].
Turning to `Cc1ccc2nc(Cl)c3nnnn3c2c1`, the cell number change was -59.6%. Moreover, the AC50 under setting [2] is 16.4 µM [falling, partial curve]. For the same molecule, the AC50 under setting [1] was 16.4 µM [falling, partial curve].
For `O=C(COCc1cc(-c2ccc3c(c2)OCO3)on1)N1CCN(c2cccc(Cl)c2)CC1`, the cell number change is 42.4%. Moreover, the AC50 under setting [2] was 1.64 µM [rising, partial curve].
Take `Cc1cc(C)c(NC(N)=S)c(C)c1`: the cell number change is -14%. For the same molecule, the AC50 under setting [1] is 0.164 µM [falling, full curve, poor fit].
For the molecule `COc1ccc(-c2noc(C3CCCN(C(=O)c4ccccc4OC)C3)n2)cc1` (stereo not drawn), the cell number change was -13%.
As for `CS(=O)(=O)Nc1ccc(C(=O)N2CCCC2)cc1`, under setting [1], the AC50 was 9.2 µM [rising, single point].
As to `Cc1ccc(N(C)C(=O)N2CCN(S(=O)(=O)c3ccc(C)cc3)CC2)cc1`, the cell number change is 0.921%. Also, the AC50 under setting [1] was 16.4 µM [rising, single point].
